Measurements reported in PubChem BioAssay AID1347076 (National Center for Advancing Translational Sciences (NCATS), 2019).
“And” between values parts separate entries of the source, which are not always exact repeats. Equal entries are not always repeated. In all, about 400,000 compounds went through this assay and about 13,000 (3.2%) were called active. The shares of active, inactive and inconclusive entries below differ from those in the screen. Calls come from the whole dose curve; as a rule, active = well fitted cell-killing curve with a large enough effect; inconclusive = small, poorly fitted or top-dose-only effect, or effect the other way; inactive = flat fitted curve, though single readings scatter. A potency beside an inconclusive call is a rough fit, not a confirmed value.

Assay: qHTS assay for MDR1-selective chemotherapeutics: Primary screen using the drug-selected MDR subline cells KB-V1; note: nearly all actives have a fitted effect of over 60% in size
Conditions: KB-V1 MDR cells viability, CellTiter-Glo, 72 h; activity change, negative = cytotoxicity: at 46.1 µM (top of the series)
In short: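 In this primary screen, KB-V1 cells overexpressing P-gp are incubated with library compounds (lowest to highest concentration) for 72 h at 37 degrees C before a luminescent ATP viability read.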
% is set by controls: 0 for no effect and ±100 for the full control effect; potency is the fitted concentration of half-maximal effect.

Row | Compound | Potency | activity change, negative = cytotoxicity
1 | CCC(=O)Nc1ccc(/C(C)=N/NC(=O)c2c(Br)c(C)nn2C)cc1 | active: 7.31 µM | 
2 | CC(=O)Nc1ccc(C(=O)OCC(=O)NCc2ccccc2)cc1 |  | inactive: 2.02%
3 | Cc1ccc(C)c(NC(=O)CN(C)C(=O)CN2C(=O)C3CCCCC3C2=O)c1 (centres undefined) |  | inactive: 15.5%
4 | COc1ccc(/C=C2/C(=O)N(c3cccc(F)c3)N=C2C)c(OC)c1 |  | inactive: -16.1%
5 | Cc1ccccc1N1CCN(C(=O)[C@@H]2CCCN2C2=NS(=O)(=O)c3ccccc32)CC1 | inconclusive: 25.9 µM [cytotoxic, single point] | 
6 | Cc1c(C(=O)Nc2cnccn2)oc2ccccc12 | inconclusive: 18.4 µM [cytotoxic, partial curve, poor fit] | 
7 | O=C(N/N=C/c1ccc2c(c1)OCO2)c1sc2cccc(Cl)c2c1Cl | inconclusive: 29.1 µM [cytotoxic, single point] | 
8 | CCCCSc1nnc2[nH]c(=O)cc(N)n12 | active: 8.2 µM | 
9 | CC(=O)N1c2c(cc(Br)cc2S(=O)(=O)NCc2ccc(C)cc2)CC1C (centres undefined) | inconclusive: 8.2 µM [cytotoxic, partial curve] | 
10 | O=S(=O)(Cc1cc(-c2ccccc2)no1)c1ccccc1 | inconclusive: 0.461 µM [cytotoxic, full curve, poor fit] | 
11 | CC(=O)CSc1nc(N)c(C#N)c(-c2cccs2)c1C#N | active: 18.4 µM | 
12 | CC(=O)c1cccc(NC(=O)CCCOc2ccc(C)cc2)c1 | inconclusive: 32.6 µM [cytotoxic, partial curve, poor fit] | 
13 | CC(C)(Cc1ccc(O)cc1)NC(=O)CC(=O)N=Nc1c(O)[nH]c2ccc(Br)cc12 |  | inconclusive: 16.2%
14 | O=C(CCl)N(c1ccccc1)c1c[nH]c2ccccc12 | active: 16.4 µM | 
15 | NC(=O)C1CCN(C(=O)c2cc3c(s2)CCCCC3)CC1 | inconclusive: 32.6 µM [cytotoxic, partial curve, poor fit] | 
16 | CCc1noc(C)c1C(=O)Nc1ccc(Cl)c(S(=O)(=O)N2CCCCC2)c1 | inconclusive: 6.51 µM [cytotoxic, partial curve] | 
17 | COc1ccc(S(=O)(=O)N2CCOCC2)cc1C(=O)Nc1cccc(C(=O)NC2CC2)c1 | inconclusive: 32.6 µM [rising, partial curve, poor fit] | 
18 | Cc1ccc(N2C(=O)CSC2c2ccccn2)cc1Cl (centres undefined) | inconclusive: 20.6 µM [cytotoxic, single point] | 
19 | CCC(Sc1nncn2c1cc1occc12)C(=O)Nc1ccc(C)c(Cl)c1 (centres undefined) |  | inactive: 2.19%
20 | Cc1ccc(C)c(S(=O)(=O)N2CCCCC2CCNC(=O)C(=O)NCc2ccccn2)c1 (centres undefined) | inconclusive: 7.31 µM [cytotoxic, partial curve] | 
21 | Cc1ccc(C(=O)NCC(c2cccs2)S(=O)(=O)c2cccs2)cc1 (centres undefined) | inconclusive: 29.1 µM [cytotoxic, single point] | 
22 | CCCNC(=O)c1ccc(N2CCC3(CC2)CC(c2ccccc2)=NO3)c([N+](=O)[O-])c1 |  | inactive: -0.24%
23 | Clc1ccc(CNc2ccc(N3CCN(Cc4ccccc4)CC3)cc2)cc1 | inconclusive: 7.31 µM [cytotoxic, partial curve, poor fit] | 

Row | Compound | Potency | activity change, negative = cytotoxicity
24 | O=C(NCC1CCCO1)c1cc([N+](=O)[O-])ccc1N1CCC(Cc2ccccc2)CC1 (centres undefined) | inconclusive: 14.6 µM [cytotoxic, partial curve] | 
25 | Cc1cccc(N=Nc2ccc(O)c3ncccc23)c1 |  | inactive: -35.2%
26 | CSc1cccc(CNC(=O)C2CCC(=O)N(CCc3ccccc3)C2)c1 (centres undefined) | inconclusive: 14.6 µM [cytotoxic, partial curve] | 
27 | CCOC(=O)[C@]12CCCC=C1N(Cc1cccc3ccccc13)C(=O)[C@H](CC(=O)NCCCCc1ccccc1)C2 | inconclusive: 8.2 µM [cytotoxic, partial curve] | 
28 | CCOc1ccc(OCC)c(NC(=O)CN(C)S(=O)(=O)c2ccc3c(c2)CCCC(=O)N3)c1 | inconclusive: 10.3 µM [cytotoxic, partial curve] | 
29 | COC(=O)[C@@]1(Cc2ccc(F)cc2)[C@H]2c3cc(C(=O)N(C)C)n(Cc4cc(C)n(C)n4)c3C[C@H]2CN1C(=O)c1ccccc1 | inconclusive: 16.4 µM [cytotoxic, partial curve] | 
30 | O=C(Cn1nc(-c2ccc(Cl)cc2)ccc1=O)NCc1ccccc1Cl |  | inconclusive: 0%
31 | CC(C)=CCC[C@H](C)C[C@@H]1Cc2[nH][nH]c(=O)c2[C@@H](c2ccc(F)cc2)O1 |  | inactive: 0.729%
32 | Cc1ccccc1Cn1cc(C)c(=O)[nH]c1=O | inconclusive: 0.0366 µM [cytotoxic, full curve] | 
33 | CCOc1ccc(S(=O)(=O)Nc2ccc(S(=O)(=O)N3CCOCC3)cc2)cc1 | inconclusive: 20.6 µM [cytotoxic, single point] | 
34 | Cc1cc(OCc2nc(N)nc(N)c2-c2ccc(Cl)c(Cl)c2)ccc1[N+](=O)[O-] | active: 1.03 µM | 
35 | CC1CCN(C(=O)c2ccccc2NC(=O)c2cccs2)CC1 |  | inactive: 4.05%
36 | COc1ccc(CCC(=O)Nc2ccc(C(=O)c3ccncc3)cc2)cc1 | inconclusive: 29.1 µM [rising, single point] | 
37 | CC(=O)Nc1ccc(C(=O)Nc2ccc(S(=O)(=O)Nc3nccc(C)n3)cc2)cc1 | inconclusive: 9.2 µM [rising, partial curve, poor fit] | 
38 | Cc1ccc(CNC(=O)C2CCC(=O)N(CCc3cccc(F)c3)C2)s1 (centres undefined) | inconclusive: 20.6 µM [cytotoxic, single point] | 
39 | COc1ccc([N+](=O)[O-])cc1NC(=O)C(C)OC(=O)CSC(C)C(=O)Nc1cc(C)on1 (centres undefined) |  | inactive: 3.56%
40 | CNc1nc(Cl)nc2c1ncn2-c1ccccc1 | active: 6.51 µM | 
41 | O=c1[nH]c2ccccc2nc1-c1nnnn1Cc1ccccc1 |  | inactive: 0%
42 | Cc1nc2nc(NCc3ccccc3Cl)[nH]n2c(=O)c1Cc1ccccc1 | inconclusive: 7.31 µM [rising, partial curve] | 
43 | COc1ccc(OCCSc2nc(C)nc3ccccc23)cc1 | inconclusive: 0.0046 µM [cytotoxic, full curve, poor fit] | 
44 | CC(C)C[C@@H](COc1ccccc1)N1CCN(CCc2ccccc2)CCC1=O | inconclusive: 6.51 µM [cytotoxic, partial curve] and inconclusive: 2.59 µM [cytotoxic, full curve] | 
45 | CCOC(=O)N1CCN(C(=O)c2csc3c2CCCCC3)CC1 | inconclusive: 23.1 µM [cytotoxic, single point] | 
46 | CCCCc1ccc(S(=O)(=O)NC(=O)C2(C)CCN2C(=O)Cc2ccccc2)cc1 (centres undefined) |  | inactive: 3.92%

Row | Compound | Potency | activity change, negative = cytotoxicity
47 | CCOC(=O)N1CCN(Cc2nc(N)nc(Nc3ccc(Cl)cc3)n2)CC1 | inconclusive: 10.3 µM [cytotoxic, partial curve] | 
48 | c1ccc(N2CCOCC2)c(Nc2nc3ccccc3n3cnnc23)c1 | inconclusive: 20.6 µM [cytotoxic, partial curve, poor fit] | 
49 | COc1ccc(CCNC(=O)c2ccc(CS(=O)(=O)c3ccc(Cl)cc3)o2)cc1OC | active: 2.59 µM | 
50 | C=CCOc1ccc(CNc2ccc(NC(=O)CCC)cc2)cc1OCC | inconclusive: 23.1 µM [cytotoxic, partial curve, poor fit] | 
51 | CCOC(=O)c1c(C)oc(=O)c(CC)c1O |  | inactive: 10.6%
52 | CN1CCN(c2nc(NCCOC34CC5CC(CC(C5)C3)C4)nc(OCC(F)(F)F)n2)CC1 | inconclusive: 16.4 µM [cytotoxic, single point] | 
53 | CCOc1ccc(CC(=O)Nc2cc(=O)n(C)c(=O)n2C)cc1 | inconclusive: 29.1 µM [cytotoxic, single point] | 
54 | O=C(O)c1ccc2c3c(cccc13)C(=O)N(c1ccccc1)C2=O | inconclusive: 20.6 µM [rising, single point] | 
55 | O=C(NNC(=O)c1cccc(Br)c1)Nc1ccc(Cl)cc1 |  | inactive: -6.04%
56 | COc1cc(O)c2c(=O)cc(-c3ccccc3)oc2c1 |  | inactive: 0%
57 | N#C/C(=N\Nc1c(Cl)cccc1Cl)C(=O)NN | active: 8.2 µM | 
58 | COc1ccc([C@H]2CC(=O)C=C(c3ccccc3-c3ccccc3)C2)cc1 | inconclusive: 18.4 µM [cytotoxic, partial curve, poor fit] | 
59 | Cc1ccccc1NC(=O)CSc1nc2c(oc3ccccc32)c(=O)n1Cc1ccco1 |  | inactive: -7.9%
60 | COc1ccc(C2/C=C\CN3CCC[C@H]3C(=O)N2Cc2ccc(F)cc2)cc1 (some centres undefined) |  | inactive: 0.0002%
61 | CC1(C)C(C=C(Cl)Cl)C1C(=O)Nc1ccc([N+](=O)[O-])cc1 (centres undefined) | inconclusive: 18.4 µM [cytotoxic, single point] | 
62 | C=CCNC1=C(Cl)C(=O)c2ccccc2C1=O | inconclusive: 29.1 µM [cytotoxic, single point] | 
63 | Cc1ccc(C23CC4CC(CC(C(=O)NC(C(=O)O)C(C)C)(C4)C2)C3)cc1 (centres undefined) | inconclusive: 18.4 µM [rising, single point] | 
64 | CCc1ccc(-c2nc(CS(=O)CC(=O)O)c(C)o2)cc1 (centres undefined) |  | inactive: 1.6%
65 | Cc1ccc(S(=O)(=O)N(C)C[C@H]2Oc3ncc(-c4ccccc4)cc3C(=O)N([C@@H](C)CO)C[C@@H]2C)cc1 | inconclusive: 25.9 µM [cytotoxic, single point] | 
66 | CC[C@@H](C)[C@@H](C(=O)N1CCN(C(=O)OC(C)(C)C)CC1)n1cc(CCCCNC(=O)OC(C)(C)C)nn1 | active: 20.6 µM | 
67 | Cc1ccccc1C1c2[nH]c3ccccc3c2C[C@H]2C(=O)N(c3ccccc3C(=O)NCCN3CCOCC3)C(=O)N12 (some centres undefined) |  | inactive: 8.75%
68 | CSCCC(NC(=O)c1ccccc1)C(=O)NNC(=O)c1csc(N2CCOCC2)n1 (centres undefined) |  | inactive: 0%
69 | O=C(CCc1nnc(C2CCCCC2)o1)NCc1cccc(-n2cccn2)c1 | inconclusive: 0.0103 µM [cytotoxic, full curve] | 

Random excerpt: 3 records from the list, in no set order.
Row | Compound | Potency | activity change, negative = cytotoxicity
38 | Cc1ccc(CNC(=O)C2CCC(=O)N(CCc3cccc(F)c3)C2)s1 (centres undefined) | inconclusive: 20.6 µM [cytotoxic, single point] | 
33 | CCOc1ccc(S(=O)(=O)Nc2ccc(S(=O)(=O)N3CCOCC3)cc2)cc1 | inconclusive: 20.6 µM [cytotoxic, single point] | 
25 | Cc1cccc(N=Nc2ccc(O)c3ncccc23)c1 |  | inactive: -35.2%
